Experimental findings from article PMC7078224 are described below.

In this assay the target is T1, DDK-tagged ERRA (estrogen related receptor, alpha) (UniProt O08580).
T1 sequence: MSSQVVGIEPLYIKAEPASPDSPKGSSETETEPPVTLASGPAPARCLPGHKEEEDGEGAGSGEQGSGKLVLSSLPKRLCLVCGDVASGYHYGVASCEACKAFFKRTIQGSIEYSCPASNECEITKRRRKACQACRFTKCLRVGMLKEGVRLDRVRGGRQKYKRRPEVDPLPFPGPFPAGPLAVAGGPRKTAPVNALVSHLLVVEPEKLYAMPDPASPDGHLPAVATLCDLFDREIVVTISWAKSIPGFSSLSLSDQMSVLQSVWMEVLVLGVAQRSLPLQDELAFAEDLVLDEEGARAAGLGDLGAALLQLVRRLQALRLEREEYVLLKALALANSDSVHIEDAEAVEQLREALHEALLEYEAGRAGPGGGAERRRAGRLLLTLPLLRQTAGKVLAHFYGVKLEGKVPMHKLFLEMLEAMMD
The assay can be described thus: co-IP; a fraction of the FLAG-M2 immunoprecipitate of DDK-tagged ERRA from murine brown preadipocytes blotted with ERRA and FLII antibodies; rabbit IgG as control.

Results are given in words; binding and its absence hold for the method and conditions named. In cells and extracts the contact can be indirect. Some results given as binding are weak or reduced against the parent protein; the word gives no strength. Where a sequence is shown, tags or fusion partners need not be part of it.

B1: flightless I actin binding protein (FLII) (protein, UniProt Q9JJ28 1-1271)
chain: MEATGVLPFVRGVDLSGNDFKGGYFPENVKAMTSLRWLKLNRTGLCYLPEELAALQKLEHLSVSHNHLTTLHGELSSLPSLRAIVARANSLKNSGVPDDIFKLDDLSVLDLSHNQLTECPRELENAKNMLVLNLSHNGIDSIPNQLFINLTDLLYLDLSENRLESLPPQMRRLVHLQTLVLNGNPLLHAQLRQLPAMMALQTLHLRNTQRTQSNLPTSLEGLSNLSDVDLSCNDLTRVPECLYTLPSLRRLNLSSNQIAELSLCIDQWVHLETLNLSRNQLTSLPSAICKLTKLKKLYLNSNKLDFDGLPSGIGKLTSLEEFMAANNNLELIPESLCRCPKLKKLVLNKNRLVTLPEAIHFLTEIQVLDVRENPSLVMPPKPADRTAEWYNIDFSLQNQLRLAGASPATVAAAAAVGSGSKDPLARKMRLRRRKDSAQDVQAKQVLKGMSDVAQEKNKNQEESIDARAPGGKVRRWDQGLEKPRLDYSEFFTEDVGQLPGLTIWQIENFVPVLVEEAFHGKFYEADCYIVLKTFLDDSGSLNWEIYYWIGGEATLDKKACSAIHAVNLRNYLGAECRTVREEMGDESEEFLQVFDNDISYIEGGTASGFYTVEDTHYVTRMYRVYGKKNIKLEPVPLKGSSLDPRFVFLLDQGLDIYVWRGAQATLSNTTKARLFAEKINKNERKGKAEITLLVQGQEPPGFWDVLGGEPSEIKNHVPDDFWPPQPKLYKVGLGLGYLELPQINYKLSVEHKKRPKVELMPGMRLLQSLLDTRCVYILDCWSDVFIWLGRKSPRLVRAAALKLGQELCGMLHRPRHTVVSRSLEGTEAQVFKAKFKNWDDVLTVDYTRNAEAVLQGQGLSGKVKRDTEKTDQMKADLTALFLPRQPPMPLAEAEQLMEEWNEDLDGMEGFVLEGRKFTRLPEEEFGHFYTQDCYVFLCRYWVPVEYEEEEKTEDKEGKASAEAREGEEAAAEAEEKQPEEDFQCIVYFWQGREASNMGWLTFTFSLQKKFESLFPGKLEVVRMTQQQENPKFLSHFKRKFIIHRGKRKVTQGTLQPTLYQIRTNGSALCTRCIQINTDSSLLNSEFCFILKVPFESEDNQGIVYAWVGRASDPDEAKLAEDILNTMFDASYSKQVINEGEEPENFFWVGIGAQKPYDDDAEYMKHTRLFRCSNEKGYFAVTEKCSDFCQDDLADDDIMLLDNGQEVYMWVGTQTSQVEIKLSLKACQVYIQHTRSKEHERPRRLRLVRKGNEQRAFTRCFHAWSTFRQAPA
B1: the binding result was “binds”.
